Results reported in the supplement of paper PMC10338343.
± gives the standard deviation. The list shows a part of the results, in another mix than the full data. The uncertainty is large for many entries.

What follows are sequences tested on EfPiwi piRISC loaded with piRNA #1 (26 nt) (assay: pre-steady-state target cleavage rate (min^-1); guide: piRNA #1 5'p-UGAGGUAGUAGGUUGUAUAGUAUCCA; MIWI and MILI are mouse PIWI proteins and EfPiwi is from a freshwater sponge; tags in brackets are library labels; higher = faster piRNA-guided slicing of the target). Conditions: auxiliary factor: 500 nM Ephydatia muelleri Gtsf1.
Method in brief: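 The pre-steady-state cleavage rate was obtained by Cleave-'n-Seq with a burst-and-steady-state fit. A transcribed, DNA-blocked target RNA library (0.1 nM) was mixed with 1 nM active affinity-purified piRISC carrying one synthetic guide, with or without 500 nM GTSF1 partner protein, in HEPES–potassium acetate buffer at 33 °C for 0–8 or 0–960 min. Uncleaved targets were sequenced and normalised to depth and to weakly complementary targets, with three trials pooled and k3 capped at 0.0001 min^-1.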

Sequence	pre-steady-state target cleavage rate
GGAGAGGAUAGAUUACAACCUACUACCUCA	0.00319 ± 0.0051
GGAGUGGAUACUAUUCUACCUACUACCUCA	0.00571 ± 0.0035
GGAGACCUAUCUAUACAACCUACUUGCUCA	0.00118 ± 0.0058
GGAGACCUAUCUAUACAACCUUCUUCCUCA	0.000355 ± 0.0084
GGAGACCUAUGAUAUGUUGGUAUCUACCUCA	0.000108 ± 0.032
GGAGACCUUACUAUACAACCUACUACCUACA	0.00473 ± 0.0031
GGAGACCAAACUAAACAACCUACUACCUCA	0.00793 ± 0.0036
GGAGACCUAUCAAUACAACCUACUACCUGA	0.00251 ± 0.004
GGAGACCUUACUAUACAACCUACAACCACA	0.00139 ± 0.0079
GGAGAGGAUUCUUUACAACCUACUACCUCA	0.0017 ± 0.0068
GGAGACCUAACUAUUCAACCUACAACCUCA	0.000946 ± 0.0084
GGAGACCUAUCUAUACAAGGUACUACCUCA	0.000911 ± 0.0033
GGAGUCGAUACUAUACAACCUACUACCACA	0.0037 ± 0.0015
GGAGAGGAUACUAUACAACCUACUACCUGCA	0.00613 ± 0.0026
GGAGACCUAUCUAUACAACCUACUUCCACA	0.000377 ± 0.0069
GGAGACCUAACUAAACAACCUAGUACCUCA	0.00226 ± 0.0038

Some values from the results shown.
Value for GGAGAGGAUUCUUUACAACCUACUACCUCA under pre-steady-state target cleavage rate: 0.0017 ± 0.0068
Value for GGAGAGGAUAGAUUACAACCUACUACCUCA under pre-steady-state target cleavage rate: 0.00319 ± 0.0051
